The list shows a part of the results.

Protein sequences, listed by entry. Tags and fused reporters are not part of them.
UniProt Q0JBA9, entry or part of it: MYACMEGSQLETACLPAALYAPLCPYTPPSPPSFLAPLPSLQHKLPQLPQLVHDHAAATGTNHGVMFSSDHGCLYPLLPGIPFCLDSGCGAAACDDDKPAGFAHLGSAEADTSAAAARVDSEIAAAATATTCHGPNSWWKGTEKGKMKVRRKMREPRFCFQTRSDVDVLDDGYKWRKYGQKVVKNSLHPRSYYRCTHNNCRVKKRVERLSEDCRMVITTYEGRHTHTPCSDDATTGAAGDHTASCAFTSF

The target in this assay is OsWRKY34 (Oryza sativa, UniProt Q0JBA9 1-250). The assay is described as follows: protein-binding microarray (RPBM); PBS, 2% BSA, 51.3 ng/ul salmon testes DNA, 50 uM zinc acetate, 200 nM TF, 25 C, 1 h; high values mean tight binding. To be noted: protein: recombinant; tags: N-terminal polyhistidine and DsRed monomer fusion (pET32a); label: CyDye5-dUTP incorporated in the synthesized complementary strand; 3' TTTTT single-stranded linker to array surface; dsDNA, one strand shown. The method, boiled down:
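Ni–NTA purification followed expression in E. coli BL21-CodonPlus of transcription factors fused N-terminally to a polyhistidine tag and DsRed. At 200 nM in PBS with 2% BSA, salmon testes DNA and 50 µM zinc acetate, the protein was incubated for 1 h at 25 °C with a custom Agilent array that had been primer-extended with Cy5-dUTP and blocked with 2% BSA. After washing, the array was read on an Axon 4000B scanner. The binding signal is per-feature fluorescence intensity in arbitrary units.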
“GGATTCGGAGGCGGGTGGGAGTGGGAGAGTGAGAGGGGCTCGGAGTCACCTAGTGCAG”: the binding signal is 16200 fluorescence intensity (a.u.).

Consider “CATACAGAGCTTGCCGCTGCCCATCACGTCGACCTACGCTCGGAGTCACCTAGTGCAG”, for which the binding signal was 8750 fluorescence intensity (a.u.).

Consider “GTTTCTGTCCATTGAGATATATTAGGTGATATTTTTGTGTCGGAGTCACCTAGTGCAG”, for which the binding signal was 8110 fluorescence intensity (a.u.). With “ATTTGGTAGGGCTGGTTGGAGTACTTTTCATTGGGTGCCTCGGAGTCACCTAGTGCAG” the figure was 11900 fluorescence intensity (a.u.); with “GCCTGGTCCTGTCACAAGTTTTGTTTGCTGAATCTTATTACGGAGTCACCTAGTGCAG”, 12500 fluorescence intensity (a.u.). With “CGAATAGGCTCGTGTTGCTTCCTTCTCTCTCACCTGCGCACGGAGTCACCTAGTGCAG” the figure was 8120 fluorescence intensity (a.u.). With “CACCCAAGACACCAGCACCCCGCGCGGCCCAGCAAGTTAACGGAGTCACCTAGTGCAG” the figure was 9050 fluorescence intensity (a.u.); with “GCCCATCACACAGCATCTGTAACTGTGCAGGTTTTAATTTCGGAGTCACCTAGTGCAG”, 9370 fluorescence intensity (a.u.). “ACTGTACAAATTTTTCACCTACCTCAACTTCTCATTCAATCGGAGTCACCTAGTGCAG”: the binding signal is 8350 fluorescence intensity (a.u.). On to “TCTCTGATCATCTTGGCGTTGATACCACTCATCGGCGTCACGGAGTCACCTAGTGCAG”, for which the binding signal was 10500 fluorescence intensity (a.u.).

On to “AGATAAGGCTCATACAGGCATACATCACACTACTATTTGACGGAGTCACCTAGTGCAG”, for which the binding signal was 8210 fluorescence intensity (a.u.). The result for “GTATGACTTCTCCGTTTTTATATTTGCACTAATTTTTTAACGGAGTCACCTAGTGCAG” reads 11200 fluorescence intensity (a.u.); that for “ATCTGTCATCTCGTTCTTCTCACGTCAGGAATCTCCAGAGCGGAGTCACCTAGTGCAG”, 9400 fluorescence intensity (a.u.). With “GCTTTCTGTGGTGCATTCTATATTTTTTATATATTATTATCGGAGTCACCTAGTGCAG” the figure was 16400 fluorescence intensity (a.u.). With “TCCCACAGATTATTTGCTTGCTACTTGGGGTTGTTATTTTCGGAGTCACCTAGTGCAG” the figure was 8750 fluorescence intensity (a.u.); with “TAGCTCTCGTCTCACCTAACCTAACATCGCCAGGTTTTTCCGGAGTCACCTAGTGCAG”, 9610 fluorescence intensity (a.u.).

As for “CGCAGGGGTGGCAGCCATCTCTACATCCATCAGTTCGCGTCGGAGTCACCTAGTGCAG”, the binding signal was 8430 fluorescence intensity (a.u.). With “CTGGATCACACCTTCTCTTCACCTTTTCTTCTCAAGCCAGCGGAGTCACCTAGTGCAG” the figure was 9360 fluorescence intensity (a.u.); with “CACTTCCTATCTCAAATACGACTGCTTCGTCGTAACCCTTCGGAGTCACCTAGTGCAG”, 8230 fluorescence intensity (a.u.); with “GACTACAAAGCCCAGTGCATCACCATTCCTCAGAGTTGTCCGGAGTCACCTAGTGCAG”, 8260 fluorescence intensity (a.u.).

For the sequence “GTGTCGTGGTGGAAAGTTCCTTACAAGCGCCGCCTCTATCCGGAGTCACCTAGTGCAG”, the binding signal is 8220 fluorescence intensity (a.u.). The result for “ATACCAGTCATTACCTTCAATTTAAATCTATTTTTTTTCTCGGAGTCACCTAGTGCAG” reads 10200 fluorescence intensity (a.u.); that for “CCTAACCCCGACGACCCGCGCCCCACGAAACCCCTCCCCTCGGAGTCACCTAGTGCAG”, 10800 fluorescence intensity (a.u.); that for “GACTTACTTTATTGTCTACAGTACTTTAAGCACAACTTTTCGGAGTCACCTAGTGCAG”, 8360 fluorescence intensity (a.u.). The result for “CCGCCGTCGCCACAACTCCGCCCGGCCTTCGCGCCAGTCTCGGAGTCACCTAGTGCAG” reads 9440 fluorescence intensity (a.u.); that for “TCGATTGAGCTCTTTTTTTTTTCTTTTCTTCTACCTTTCACGGAGTCACCTAGTGCAG”, 11600 fluorescence intensity (a.u.).

As for “CTCGACATCCACGTCGCTCGCCACCAACACTACCGACGTCCGGAGTCACCTAGTGCAG”, the binding signal was 8240 fluorescence intensity (a.u.). For the sequence “AGTGGTGTTTGTATTGAAAAAGTAGTGTCTAATACTAGTTCGGAGTCACCTAGTGCAG”, the binding signal was 9550 fluorescence intensity (a.u.).

In the case of “AAAGTTGACTTTTCAGCTTGGGAAAGTAATTCACATGATCCGGAGTCACCTAGTGCAG”, the binding signal was 13500 fluorescence intensity (a.u.). With “CCTTCACCGCCTCCGCCTCTTTGACCTCCTCCTCCGCCATCGGAGTCACCTAGTGCAG” the figure was 10400 fluorescence intensity (a.u.); with “CATCCGATTCCTATGTATTTCTTGCGGTCTAATCAAACGACGGAGTCACCTAGTGCAG”, 10200 fluorescence intensity (a.u.); with “GAGCGTGGCGGAGACCGGTGGGGAAGGAGGTGGGGCGGAGCGGAGTCACCTAGTGCAG”, 9880 fluorescence intensity (a.u.). Take “GTATAGGTTTCTCTGTTTTTTTTTTACTACCTCTATCCCACGGAGTCACCTAGTGCAG”: the binding signal was 11800 fluorescence intensity (a.u.). Take “ATATAGGGGTTGTTTGGTTGATGGTTAAGTTTATCACCTCCGGAGTCACCTAGTGCAG”: the binding signal was 10600 fluorescence intensity (a.u.). Consider “CTCCGGTGGGTCGGGTCTGGGCGGGGTGCGCGTGGGGATGCGGAGTCACCTAGTGCAG”, for which the binding signal is 18200 fluorescence intensity (a.u.). With “ATATGTGTGGGTTAAGAGAAGGCTGAAAAAAAACTTTATACGGAGTCACCTAGTGCAG” the figure was 8320 fluorescence intensity (a.u.). As for “GCTATTGTACCTACTCTTAATCCCCTCTGATTAATTAATTCGGAGTCACCTAGTGCAG”, the binding signal is 8620 fluorescence intensity (a.u.). The result for “GTTTTAGTGGGTTGTTTCGTTGACGTGGTGCTATGACCCGCGGAGTCACCTAGTGCAG” reads 9160 fluorescence intensity (a.u.); that for “TTCAGAATATATGCACGCCGAACTGCGTCTTGTTCATTGACGGAGTCACCTAGTGCAG”, 8840 fluorescence intensity (a.u.). With “CCACCCCATCGCGAGATCTCATCCGTCCATCTCTCTTCCTCGGAGTCACCTAGTGCAG”, the binding signal was 8690 fluorescence intensity (a.u.).

As for “GAATTTCTTTTTCCGTCGTTTGTCTGGTCCACCATGAAACCGGAGTCACCTAGTGCAG”, the binding signal is 8260 fluorescence intensity (a.u.). The result for “ATTATTGCTATTTGTCCGCACAATTTCTCCCTGTTTTTCGCGGAGTCACCTAGTGCAG” reads 11800 fluorescence intensity (a.u.).

The values are drawn from article PMC7819943, “Rice protein-binding microarrays: a tool to detect cis-acting elements near promoter regions in rice”.
